Measured data: PubChem BioAssay AID652259 (Drosophila RNAi Screening Center, 2013)
The deposit covers about 22,000 reagents; this is an unselected part of those with a known target gene and a result. In the full data, 233 (1.1%) are marked active. 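Light values are raw, unnormalised plate reads; the ratio scores behind the reporter calls were not deposited.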 The numbers tell different reagents against one gene apart. A plus sign joins genes that one reagent is predicted to hit. Not stated in the record: the amount of reagent, the time to read-out, the dose of the treatment.

Aim: 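Knock-downs that push a Wingless-driven reporter up or down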 (primary screen)
Cell system: Drosophila clone 8 imaginal disc epithelial cells
Reagents: long dsRNA against Drosophila genes
Conditions: pathway stimulated by co-transfected Wingless expression plasmid
Detection: 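Firefly luciferase from a tcf-site Wingless reporter, measured alongside co-transfected Renilla luciferase that tracks transfection; pathway stimulated by a Wingless plasmid; the firefly-to-Renilla ratio is not deposited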
Scale: firefly reporter light: higher = more Wg reporter light, before normalisation; Renilla control light: higher = more transfected or surviving cells
Call rule: 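Strong candidates differ from their plate mean by at least two out of four per-plate statistical tests; weak candidates meet just one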
Meaning of the calls: active = candidate regulator (raises or lowers reporter); inactive = not a candidate

{"Target gene": "MED30 (Mediator complex subunit 30)", "reagent no.": 1, "firefly reporter light, replicate 1": 13977, "Renilla control light, replicate 1": 2327, "Outcome": "inactive"}
{"Target gene": "Ir60e (Ionotropic receptor 60e)", "reagent no.": 1, "firefly reporter light, replicate 1": 1467, "firefly reporter light, replicate 2": 6059, "Renilla control light, replicate 1": 609, "Renilla control light, replicate 2": 1990, "Outcome": "inactive"}
{"Target gene": "CG13616", "reagent no.": 1, "firefly reporter light, replicate 1": 19082, "Renilla control light, replicate 1": 15130, "Outcome": "inactive"}
{"Target gene": "Art7 (Arginine methyltransferase 7)", "reagent no.": 1, "firefly reporter light, replicate 1": 1904, "firefly reporter light, replicate 2": 8182, "Renilla control light, replicate 1": 711, "Renilla control light, replicate 2": 2725, "Outcome": "inactive"}
{"Target gene": "CG42542", "reagent no.": 1, "firefly reporter light, replicate 1": 5684, "Renilla control light, replicate 1": 2471, "Outcome": "inactive"}
{"Target gene": "CG42542", "reagent no.": 2, "firefly reporter light, replicate 1": 3.61e5, "firefly reporter light, replicate 2": 4.52e5, "Renilla control light, replicate 1": 1.56e5, "Renilla control light, replicate 2": 1.71e5, "Outcome": "inactive"}
{"Target gene": "CG7430", "reagent no.": 1, "firefly reporter light, replicate 1": 5920, "Renilla control light, replicate 1": 2267, "Outcome": "inactive"}
{"Target gene": "Cep89 (Centrosomal protein 89kDa)", "reagent no.": 1, "firefly reporter light, replicate 1": 5227, "Renilla control light, replicate 1": 2295, "Outcome": "inactive"}
{"Target gene": "SmydA-1 (SET and MYND domain containing, arthropod-specific, member 1)", "reagent no.": 1, "firefly reporter light, replicate 1": 14393, "Renilla control light, replicate 1": 4060, "Outcome": "inactive"}
{"Target gene": "sll (slalom)", "reagent no.": 1, "firefly reporter light, replicate 1": 2544, "firefly reporter light, replicate 2": 6260, "Renilla control light, replicate 1": 1008, "Renilla control light, replicate 2": 1712, "Outcome": "inactive"}
{"Target gene": "holn1 (hole-in-one)", "reagent no.": 1, "firefly reporter light, replicate 1": 15521, "Renilla control light, replicate 1": 5372, "Outcome": "inactive"}
{"Target gene": "holn1 (hole-in-one)", "reagent no.": 2, "firefly reporter light, replicate 1": 4.72e5, "firefly reporter light, replicate 2": 5.38e5, "Renilla control light, replicate 1": 1.78e5, "Renilla control light, replicate 2": 2.33e5, "Outcome": "inactive"}
{"Target gene": "Cypl (Cyclophilin-like)", "reagent no.": 1, "firefly reporter light, replicate 1": 6993, "Renilla control light, replicate 1": 4449, "Outcome": "inactive"}
{"Target gene": "IscU (Iron-sulfur cluster assembly enzyme)", "reagent no.": 1, "firefly reporter light, replicate 1": 11244, "Renilla control light, replicate 1": 3875, "Outcome": "inactive"}
{"Target gene": "NAT1", "reagent no.": 1, "reporter change call, replicate 1": "Wg reporter activity raised", "firefly reporter light, replicate 1": 71467, "Renilla control light, replicate 1": 1894, "Outcome": "active"}
{"Target gene": "ATP7", "reagent no.": 1, "firefly reporter light, replicate 1": 21840, "Renilla control light, replicate 1": 9165, "Outcome": "inactive"}
{"Target gene": "Rab9", "reagent no.": 1, "firefly reporter light, replicate 1": 3122, "firefly reporter light, replicate 2": 8712, "Renilla control light, replicate 1": 1126, "Renilla control light, replicate 2": 3072, "Outcome": "inactive"}

An excerpt of the results above, as a working copy:
{"Target gene": "sll (slalom)", "reagent no.": 1, "firefly reporter light, replicate 1": 2544, "firefly reporter light, replicate 2": 6260, "Renilla control light, replicate 1": 1008, "Renilla control light, replicate 2": 1712, "Outcome": "inactive"}
{"Target gene": "holn1 (hole-in-one)", "reagent no.": 1, "firefly reporter light, replicate 1": 15521, "Renilla control light, replicate 1": 5372, "Outcome": "inactive"}
{"Target gene": "holn1 (hole-in-one)", "reagent no.": 2, "firefly reporter light, replicate 1": 4.72e5, "firefly reporter light, replicate 2": 5.38e5, "Renilla control light, replicate 1": 1.78e5, "Renilla control light, replicate 2": 2.33e5, "Outcome": "inactive"}

Further records follow:
{"Target gene": "CG34135 + Nasp + CG11768", "reagent no.": 1, "firefly reporter light, replicate 1": 20869, "Renilla control light, replicate 1": 3140, "Outcome": "inactive"}
{"Target gene": "CG34135 + Nasp + CG11768", "reagent no.": 2, "firefly reporter light, replicate 1": 19068, "Renilla control light, replicate 1": 4853, "Outcome": "inactive"}
{"Target gene": "Pi4KIIIalpha (Phosphatidylinositol 4-kinase III alpha)", "reagent no.": 1, "firefly reporter light, replicate 1": 22715, "Renilla control light, replicate 1": 14661, "Outcome": "inactive"}
{"Target gene": "CG15021", "reagent no.": 1, "firefly reporter light, replicate 1": 2048, "firefly reporter light, replicate 2": 10000, "Renilla control light, replicate 1": 2004, "Renilla control light, replicate 2": 5515, "Outcome": "inactive"}
{"Target gene": "Trx2 (Thioredoxin 2)", "reagent no.": 1, "firefly reporter light, replicate 1": 4280, "firefly reporter light, replicate 2": 8883, "Renilla control light, replicate 1": 1254, "Renilla control light, replicate 2": 3811, "Outcome": "inactive"}
{"Target gene": "RhoGDI", "reagent no.": 1, "firefly reporter light, replicate 1": 8992, "Renilla control light, replicate 1": 3313, "Outcome": "inactive"}
{"Target gene": "Nepl12 (Neprilysin-like 12)", "reagent no.": 1, "firefly reporter light, replicate 1": 14800, "Renilla control light, replicate 1": 3974, "Outcome": "inactive"}
{"Target gene": "CG32237", "reagent no.": 1, "firefly reporter light, replicate 1": 1561, "firefly reporter light, replicate 2": 8347, "Renilla control light, replicate 1": 1237, "Renilla control light, replicate 2": 3844, "Outcome": "inactive"}
{"Target gene": "CG32237", "reagent no.": 2, "firefly reporter light, replicate 1": 1520, "firefly reporter light, replicate 2": 13537, "Renilla control light, replicate 1": 1237, "Renilla control light, replicate 2": 4557, "Outcome": "inactive"}
